# In PubChem BioAssay AID2685 (National Center for Advancing Translational Sciences (NCATS), 2010):
# The other results are listed elsewhere or left out. Further columns of the screen follow, without active or inactive calls. Most of these compounds were active or inconclusive in the main read-out, so they are no random draw. Words in brackets tell the shape of the fitted curve; partial curves, single points and poor fits give uncertain potencies.
# Assay: qHTS Assay for Lipid Storage Modulators in Drosophila S3 Cells;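 for cell number change: cells counted by Cell Tracker Red CMTPX staining in the red channel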
# Details: BODIPY lipid droplet fluorescence, 18-24 h; for cell number change: measured here: cell count max response, cells fed with added oleic acid
# Summary of the method: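 Laser-scanning cytometry quantifies lipid droplet accumulation (500–530 nm total intensity; droplet/cell object ratio) in oleic acid-fed (400 uM added) Drosophila S3 cells treated with a concentration series. 20 uM Triacsin C defined 100% inhibition.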
# [1] = measured here: lipid fluorescence (Fed channel) AC50, cells fed with added oleic acid
# [2] = measured here: cell number channel AC50, cells fed with added oleic acid
Compound,cell number change [%],AC50 [1],AC50 [2]
O=C(CN1C(=O)c2ccccc2S1(=O)=O)Nc1ccc(S(=O)(=O)N2CCCCCC2)cc1,10.3,–,–
c1cnc(N2CCN(c3nc4ccccc4n4cnnc34)CC2)nc1,–,"1.46 µM [falling, partial curve, poor fit]",–
COc1ccc(CNC(=O)C2CCN(C(=O)c3ccc(F)cc3)CC2)cc1OC,-19.6,"4.11 µM [falling, partial curve]",–
COc1cccc(NC(=O)COC(=O)c2ccccc2SCC(=O)N2CCCC2)c1,-4.62,–,–
COc1cccc(CN2CCNC(=O)C2CC(=O)NCCCC2CCCC2)c1OC (configuration not stated),1.98,"6.51 µM [rising, single point]",–
Cc1ccc(Cn2c(O)c(N=O)c3ccccc32)cc1,22,"18.4 µM [rising, single point]",–
COc1ccc(C(C(=O)NC2CCCC2)N(Cc2cccnc2)C(=O)Cc2cccs2)c(OC)c1 (configuration not stated),–,"23.1 µM [falling, single point]",–
O=C(N/C(=C\c1cccnc1)C(=O)N1CCOCC1)c1cccc(Br)c1,16.2,"1.84 µM [falling, single point]",–
Cc1c(NC(=O)OCCNC(=O)Nc2ccccc2)sc(=S)n1C,2.38,"29.1 µM [falling, single point]",–
CC1CCCN(C(=O)c2ccc(Cl)c(S(=O)(=O)N3CCCCCC3)c2)C1 (configuration not stated),-2.11,"2.59 µM [rising, partial curve]","3.26 µM [rising, single point]"
CC(C)CC(C(=O)O)N1C(=O)C2C3CC(C2C1=O)C1C(c2ccccc2)c2sc(=O)[nH]c2SC31 (configuration not stated),52.2,–,"29.1 µM [rising, single point]"
N#CC1=C(S)N(c2ccccc2)C(c2cccs2)NC1=O (configuration not stated),-71.7,"1.46 µM [falling, partial curve, poor fit]","32.6 µM [falling, single point]"
COc1ccccc1-c1cc(C(=O)NCCCN2CCOCC2)no1,15.3,"29.1 µM [rising, single point]",–
Cc1ccc(NCN2C(=O)C3C4C=CC(C4)C3C2=O)cc1 (configuration not stated),2.86,"29.1 µM [rising, single point]",–
CC(C)(C)c1ccc(C(O)CCCN2CCC(C(O)(c3ccccc3)c3ccccc3)CC2)cc1 (configuration not stated),-13.1,"7.31 µM [falling, partial curve, poor fit]",–
COc1cc(C2Nc3ccc4ncccc4c3C3=C2C(=O)CC(C)(C)C3)cc(OC)c1O (configuration not stated),–,"0.82 µM [rising, single point]",–
O=Cc1cccn1Cc1ccc(Cl)cc1Cl,-17.8,–,–
COc1ccc([C@H]2CC(=O)C=C(c3ccc(Cl)c(Cl)c3)C2)cc1,-25.4,"0.82 µM [falling, partial curve]","0.461 µM [falling, full curve, poor fit]"
CC(C)CN(C(=O)COC(=O)CCSc1ccc(F)cc1)c1c(N)n(Cc2ccccc2)c(=O)[nH]c1=O,-13.8,"8.2 µM [falling, partial curve]",–
COC(=O)CS(=O)(=O)c1ccc2c(c1)CC(=O)N2,51.3,"6.51 µM [rising, single point]","20.6 µM [rising, single point]"

# Some of the entries so far, with tabs:
Compound	cell number change [%]	AC50 [1]	AC50 [2]
COc1cccc(CN2CCNC(=O)C2CC(=O)NCCCC2CCCC2)c1OC (configuration not stated)	1.98	6.51 µM [rising, single point]	–
N#CC1=C(S)N(c2ccccc2)C(c2cccs2)NC1=O (configuration not stated)	-71.7	1.46 µM [falling, partial curve, poor fit]	32.6 µM [falling, single point]
CC(C)CN(C(=O)COC(=O)CCSc1ccc(F)cc1)c1c(N)n(Cc2ccccc2)c(=O)[nH]c1=O	-13.8	8.2 µM [falling, partial curve]	–

# The list goes on.

Compound,cell number change [%],AC50 [1],AC50 [2]
CCOc1ccccc1CN1C(=O)NC(C)(c2ccccc2)C1=O (configuration not stated),-3.06,"5.8 µM [rising, partial curve, poor fit]",–
Cc1ccc2nc(SCC(=O)c3ccc(O)cc3O)[nH]c2c1,25.4,"0.82 µM [falling, full curve]","0.731 µM [falling, full curve]"
O=C(NN1C(=O)C2C3C=CC(C3)C2C1=O)C(O)c1ccccc1 (configuration not stated),-8.78,–,–
CCN(CC)CCC(=O)N1c2ccccc2Sc2ccc(NC(=O)OC)cc21,-19.8,–,–
C=CCNc1nc(-c2cc3ccccc3o2)cs1,-42.1,–,"18.4 µM [falling, partial curve]"
O=C(CCCN1C(=O)/C(=C/c2ccc(F)cc2)SC1=S)NCCCn1ccnc1,-0.382,"18.4 µM [rising, partial curve]",–
COCc1ccc(C(=O)N2CCCC(N(C)Cc3ccccc3)C2)s1 (configuration not stated),5.42,"5.8 µM [rising, full curve]",–
COc1ccc(CNC(=O)[C@H](C)NC(=O)[C@@H]2Cc3ccccc3CN2)cc1,18.3,"6.51 µM [rising, single point]",–
CCC(C)[C@H](NC(=O)OC(C)(C)C)c1nnc(SCc2c(C)[nH]c(=O)[nH]c2=O)o1 (some centres not stated),-7.34,–,–
O=C(N/N=C/c1ccccn1)c1ccccc1,-0.784,"0.0259 µM [rising, single point]",–
COc1ccc(C(=O)Cn2cnc3ccccc3c2=O)cc1OC,9.4,"3.26 µM [rising, single point]",–
O=C(COC(=O)c1ccc(S(=O)(=O)NCc2ccco2)cc1)NCc1ccc(F)cc1,-1.47,–,"0.731 µM [falling, single point]"
Cc1sc(NC(=O)c2ccco2)c(C(c2cccnc2)N2CCN(C)CC2)c1C (configuration not stated),–,"3.66 µM [rising, single point]","0.92 µM [rising, full curve, poor fit]"
COc1ccc(OCC(=O)NC(=S)Nc2ccc(S(=O)(=O)Nc3cc(OC)nc(OC)n3)cc2)cc1,0.522,"29.1 µM [falling, partial curve, poor fit]",–
CCc1ccc(-n2c(=O)c3ccc(C(=O)NCCc4ccccc4)cc3n(CC(N)=O)c2=O)cc1,158,"29.1 µM [rising, partial curve, poor fit]","29.1 µM [rising, single point]"
CC(C)C(NS(=O)(=O)c1cccs1)C(=O)NCc1ccccc1 (configuration not stated),6.31,"1.16 µM [rising, full curve]",–
O=C(CSc1nnc(NC(=O)c2ccccc2[N+](=O)[O-])s1)NCC1CCCO1 (configuration not stated),-12.7,–,–
CCn1c(SCC(=O)Nc2ccccc2N2CCOCC2)nnc1-c1ccccc1O,118,"18.4 µM [rising, partial curve]","13 µM [rising, partial curve]"
CCOC(=O)CC1C(=O)NCCN1Cc1cccc(C(F)(F)F)c1 (configuration not stated),-6.39,"2.91 µM [rising, single point]",–
CC(Oc1ccc(F)cc1)C(=O)NN (configuration not stated),2.09,"29.1 µM [rising, single point]",–

Compound,cell number change [%],AC50 [1],AC50 [2]
O=S(=O)(NCC1CCCO1)c1cccc(S(=O)(=O)N2CCCC2)c1 (configuration not stated),4.43,–,–
Cc1cc(C)n(C(=O)CCCn2cc([N+](=O)[O-])cn2)n1,-19.5,"2.59 µM [falling, single point]",–
Cc1ccc(OC(C)C(=O)Nc2ccccc2C(=O)NCc2cccnc2)cc1C (configuration not stated),-28.9,"10.3 µM [falling, partial curve]",–
Cc1ccc(NC(=S)NCc2ccccc2)cc1[N+](=O)[O-],-15,"20.6 µM [falling, single point]",–
O=C(Nc1nnc(S(=O)(=O)N2CCOCC2)s1)c1cccc(F)c1,-16.4,–,–
CN(C)c1ccc(-c2n[nH]c(=S)n2-c2ccccc2)cc1,–,–,"2.31 µM [rising, partial curve]"
CC(C)CCN(CC(=O)NC1CCCC1)C(=O)C(=O)Nc1ccc2c(c1)OCCO2,-0.833,"25.9 µM [rising, single point]",–
COc1ccc(Nc2nc(N)nc(COc3ccc(OC)cc3)n2)cc1,-17.2,"0.92 µM [falling, partial curve]",–
Cn1c(SCc2nn[nH]n2)nc2c1c(=O)n(Cc1ccccc1Cl)c(=O)n2C,–,"2.06 µM [falling, partial curve]",–
O=C(CCCc1ccccc1)Nc1cccc([N+](=O)[O-])c1,-12.3,"0.206 µM [falling, full curve, poor fit]",–
C=CCNC(=O)CSCc1ccc(Br)cc1,-11.5,"5.8 µM [falling, partial curve, poor fit]","6.51 µM [falling, single point]"
CC(=O)c1ccc(NC(=O)CC(NCCC2=CCCCC2)C(=O)O)cc1 (configuration not stated),25.6,"18.4 µM [falling, partial curve, poor fit]",–
Fc1ccc(-c2nnc3ccc(N4CCc5ccccc5C4)nn23)cc1,7.55,"0.651 µM [rising, full curve]","3.26 µM [rising, partial curve]"
CCC1S/C(=N/N=C/c2ccco2)NC1=O (configuration not stated),0.708,"25.9 µM [falling, partial curve, poor fit]",–
Cc1ccc(S(=O)(=O)Oc2ccccc2N2C(=O)C3C4CCC(C4)C3C2=O)cc1 (configuration not stated),5.65,"29.1 µM [falling, single point]",–
CCOc1ccc(CC2S/C(=N/c3ccccn3)NC2=O)cc1 (configuration not stated),-24.2,–,–
O=C(O)c1nn(-c2ccccc2)c(-c2ccccc2)c1C(=O)c1ccccc1,–,–,"0.731 µM [falling, single point]"
Cc1ccc(CN2C(=O)c3ccccc3C2C(=O)NCc2cccnc2)cc1 (configuration not stated),19.8,"20.6 µM [rising, single point]",–
COc1ccc([C@@H]2CC=C(C(=O)O)[C@H](c3ccc(Cl)cc3)N2S(=O)(=O)c2ccc(C)cc2)cc1OC,-5.14,"3.26 µM [falling, partial curve, poor fit]",–
Cc1cc(C)n(S(=O)(=O)c2cc(C)c(C)cc2C)n1,–,–,"0.0366 µM [rising, full curve, poor fit]"

# Given with tabs: 2 of the compounds above
Compound	cell number change [%]	AC50 [1]	AC50 [2]
N#CC1=C(S)N(c2ccccc2)C(c2cccs2)NC1=O (configuration not stated)	-71.7	1.46 µM [falling, partial curve, poor fit]	32.6 µM [falling, single point]
COc1ccccc1-c1cc(C(=O)NCCCN2CCOCC2)no1	15.3	29.1 µM [rising, single point]	–
